# Source: paper PMC8469580
# Sequences of proteins named here, by UniProt entry; tags and fusion partners are left off.
# UniProt Q9UI95: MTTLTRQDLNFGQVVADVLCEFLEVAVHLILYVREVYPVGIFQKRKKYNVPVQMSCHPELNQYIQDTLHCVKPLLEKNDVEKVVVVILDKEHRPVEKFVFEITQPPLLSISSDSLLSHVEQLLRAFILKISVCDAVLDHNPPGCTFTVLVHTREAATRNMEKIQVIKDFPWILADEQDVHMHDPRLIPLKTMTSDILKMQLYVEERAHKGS
# Results are given in words; binding and its absence hold for the method and conditions named. Binding can be weak; no strength is given.
# Target: EspF variant from EPEC O127:H6, protein A fusion (LUMIER) (Escherichia coli EPEC O127:H6) (UniProt B7UM88)
# Experiment: LUMIER; protein A fusion and Renilla luciferase fusion transiently expressed in Caco-2 cells; lysate (20 mM Tris pH 7.5, 250 mM NaCl, 1% Triton X-100, 10 mM EDTA, 10 mM DTT); protein A fusion held on IgG-coated magnetic beads, on ice; luciferase activity on washed beads, z-scores; inverse combinations also tested
substance,measurement,value
"Mitotic Arrest-Deficient 2 Like 2 (MAD2L2), Renilla luciferase fusion (LUMIER) (from UniProt Q9UI95 1-211)",binding,binds
